# Earlier results in patent US6984639B2, “Heterocyclic ketone and thioester compounds and uses” (GPI NIL Holdings, Inc., priority 1996, dated 2006).
# At least one compound was matched to its structure with a doubt left.
# What was measured:
# [1] = test system: sensory neurons, namely dorsal root ganglion cells (DRGs); settings: picomolar concentrations; cited from earlier work
# [2] = test system: facial nerve injury; settings: following facial nerve injury; cited from earlier work
# [3] = test system: PC12 cells; settings: picomolar concentrations; cited from earlier work
# [4] = test system: sciatic nerve lesions; settings: animals with sciatic nerve lesions; cited from earlier work
SMILES,neurite outgrowth [1],nerve regeneration [2],neurite outgrowth [3],functional recovery [4]
C=CC[C@@H]1/C=C(\C)C[C@H](C)C[C@H](OC)[C@H]2O[C@@](O)(C(=O)C(=O)N3CCCC[C@H]3C(=O)O[C@H](/C(C)=C/[C@@H]3CC[C@@H](O)[C@H](OC)C3)[C@H](C)[C@@H](O)CC1=O)[C@H](C)C[C@@H]2OC [FK506],stimulates neurite outgrowth,stimulate nerve regeneration,stimulates neurite outgrowth,results in functional recovery
CO[C@H]1C[C@@H]2CC[C@@H](C)[C@@](O)(O2)C(=O)C(=O)N2CCCC[C@H]2C(=O)O[C@H]([C@H](C)C[C@@H]2CC[C@@H](O)[C@H](OC)C2)CC(=O)[C@H](C)/C=C(\C)[C@@H](O)[C@@H](OC)C(=O)[C@H](C)C[C@H](C)/C=C/C=C/C=C/1C [rapamycin],stimulates neurite outgrowth,,stimulates neurite outgrowth,
